# About 25 (0.01%) of roughly 200,000 compounds were called active. The inconclusive results got no clear call from the source; some entries with a clear call stand among them for comparison. Calls come from the whole dose curve; as a rule, active = well fitted inhibition curve with a large enough effect in the signal ratio, with a control signal flat (not every such curve was filed as active); inconclusive = small, poorly fitted or top-dose-only effect, or effect the other way, or a change in a side signal; inactive = flat fitted curve, though single readings scatter; the % refers to the signal ratio. Where the call is inconclusive, the potency comes from a doubtful curve fit.
# Assay: qHTS Assay for Modulators of Lamin A Splicing
# Conditions: HeLa LMNA splicing GFP/RFP minigene ratio, 48 h; ratio change, negative = inhibition: at 46.1 µM (top of the series) unless noted
# Outline: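 S3 HeLa cells stably expressing lamin A-EGFP splicing minigene plus DsRed2, 600 cells/well, 48 h compound exposure at 37C. Laser-scanning cytometry; analysed as GFP (500-530 nm)/RFP (575-640 nm) total intensity ratio; 0.5% DMSO vehicle.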
# % is set by controls: 0 for no effect and ±100 for the full control effect; potency is the fitted concentration of half-maximal effect.
SMILES,"ratio change, negative = inhibition",Potency
CCN(CC)S(=O)(=O)c1cccc(-c2nnc(SCC(=O)NCCC3=CCCCC3)n2N)c1,inconclusive: -30.3%,
O=C(CS(=O)(=O)c1c[nH]c2ccccc12)N1CCCCCC1,inconclusive: 15.6% [at 9.22 µM],
COc1ccccc1N1CCN(C(=O)c2c(-c3ccccc3)noc2C)CC1,inconclusive: -21.3%,
CCOc1ccc(C(=O)Nc2ccc(N3CCN(C(C)=O)CC3)cc2)cc1[N+](=O)[O-],inconclusive: 20.4% [at 46 µM],
O=C(NCC(c1ccc2c(c1)OCO2)N1CCN(c2ccccc2)CC1)c1ccccc1F (stereo not drawn),inactive,
c1ccc2sc(NCC3CCCO3)nc2c1 (stereo not drawn),inconclusive: -6.88% [at 46 µM],
O=[N+]([O-])c1ccc(C[n+]2cccc3ccccc32)cc1,inconclusive: 14% [at 46 µM],
O=C(O)c1cccc2[nH]c(C(F)(F)F)nc12,inactive,
CCOc1ccccc1NC(=O)c1c(C)cc(C)nc1SCC(=O)c1cccc(OC)c1,inconclusive: -30.8% [at 46 µM],
Cc1cc(O)c(C(c2ccc(F)cc2)N2CCCCC2)c(=O)n1Cc1ccco1 (stereo not drawn),inconclusive: -17% [at 46 µM],
CCC(=O)NC(c1ccccc1OC)c1ccc2cccnc2c1O (stereo not drawn),,"inconclusive: 35.5 µM [falling, single point]"
Cc1ccc(SCCNC(=O)c2ccccc2)cc1,inactive,
CC(=O)N1[C@H](Cc2ccccc2)C=C[C@]1(C)C(=O)NCc1ccc(C)o1,inconclusive: 3%,
CCN1CCN(Cc2c(O)ccc3c2O/C(=C\C=C\c2ccccc2)C3=O)CC1,inconclusive: 44%,
Cc1ccc(N2C(S)=C(C#N)C(=O)NC2c2cccs2)cc1 (stereo not drawn),inconclusive: -22.6%,
COc1ccc2[nH]cc(CCNc3nc(-c4ccoc4)nc4ccccc34)c2c1,inconclusive: -17.5%,
CC1=Nc2ccccc2N=C(NC(=O)CSc2nnnn2-c2ccccc2)C1c1ccccc1 (stereo not drawn),inconclusive: 18.1%,
CCCc1noc2c1/C(=N\O)CC(CC(C)SCC)C2 (stereo not drawn),inconclusive: -30.9%,
O=C(Nc1ccccc1)c1cc(S(=O)(=O)N2CCSCC2)ccc1Cl,,"inconclusive: 35.5 µM [falling, single point]"
COc1cc(C(=O)N/N=C(\C)Cc2ccccc2)cc(OC)c1OC,inconclusive: -24.6%,
CN(C)CCCC(=O)c1ccc2c(c1)OCO2,inactive,
CCC(=O)N(Cc1ccco1)Cc1cc2cccc(C)c2n2nnnc12,inconclusive: -10.5% [at 46 µM],
COc1cc(OC)cc(C(=O)OCCNC(=O)Cn2cnc3c2c(=O)n(C)c(=O)n3C)c1,inconclusive: 4.43% [at 46 µM],

# Single entries from above.
# ratio change, negative = inhibition with `CCCc1noc2c1/C(=N\O)CC(CC(C)SCC)C2` (stereo not drawn) is entered as inconclusive: -30.9%
# ratio change, negative = inhibition with `O=C(CS(=O)(=O)c1c[nH]c2ccccc12)N1CCCCCC1` is entered as inconclusive: 15.6% [at 9.22 µM]

# From PubChem BioAssay AID1487 (National Center for Advancing Translational Sciences (NCATS), 2009)
